Assay results published in PubChem BioAssay AID504444 (National Center for Advancing Translational Sciences (NCATS), 2011).
Among all 360,000 compounds or so, about 7,500 (2.1%) were called active. The shares of active, inactive and inconclusive entries below differ from those in the screen. Calls come from the whole dose curve; as a rule, active = well fitted inhibition curve with a large enough effect; inconclusive = small, poorly fitted or top-dose-only effect, or effect the other way; inactive = flat fitted curve, though single readings scatter. Where the call is inconclusive, the potency comes from a doubtful curve fit.

Assay: Nrf2 qHTS screen for inhibitors; note: nearly all actives have a fitted effect of over 60% in size
Details: A549 ARE-Fluc reporter, luciferase luminescence, 18-24 h; series mostly up to 46 µM
In short: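 Nrf2 activity is the BugLite luminescence, read 15 min after reagent at room temperature, following CellTiter-Fluor cytotoxicity readout (30 min, 37C). Compound titrations were applied for 18-24 h to 5000 A549 ARE_Fluc cells/well in 5% FBS OPTI-MEM.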
Potency is the fitted concentration of half-maximal effect.

| Structure (SMILES) | Potency |
| --- | --- |
| CCc1ccccc1NC(=O)CCn1cccn1 | inconclusive: 16.4 µM [falling, single point] |
| CCC(C)NC(=O)c1cc2cc3ccc(OC)cc3nc2s1 (configuration not stated) | inconclusive: 0.146 µM [activator, full curve, poor fit] |
| CC(C)c1ccc(CNc2ccc([N+](=O)[O-])cn2)cc1 | inconclusive: 29.1 µM [falling, single point] |
| Cc1ccc(C)c(N2CCN(CCCNC(=O)c3cnn(-c4cccc(Cl)c4)c3C3CCN(C(=O)OC(C)(C)C)CC3)CC2)c1 | inconclusive: 29.1 µM [falling, single point] |
| COc1ccccc1C1(CCNC(C)c2cccs2)CCOC(C(C)C)C1 (configuration not stated) | inactive |
| Cc1c(Cl)cccc1NC(=O)CCCCCN1C(=O)CCC1=O | inconclusive: 6.51 µM [activator, single point] |
| O=C(Nc1ccc(-c2cn3ccccc3n2)cc1)c1ccco1 | inconclusive: 4.11 µM [activator, full curve] |
| O=C(Nc1nc(-c2cccs2)cs1)c1cccc(S(=O)(=O)N2CCCCCC2)c1 | inconclusive: 35.5 µM [falling, single point] |
| Cc1ccccc1OCc1occc1C(=O)Nc1cccc(-n2cnnn2)c1 | inconclusive: 29.1 µM [falling, single point] |
| O=C(O)c1ccc(NC(=O)c2ccc3c(c2)C(=O)N(CC2CCCO2)C3=O)cc1 (configuration not stated) | inconclusive: 5.8 µM [falling, partial curve] |
| O=C(CN(C(=O)c1csnn1)c1ccccc1F)NCc1ccc2c(c1)OCO2 | inconclusive: 6.51 µM [activator, partial curve] |
| COc1ccc(C2c3ccc(OCc4ccccc4)cc3Oc3ncn(CCN4CCOCC4)c(=N)c32)cc1OC (configuration not stated) | inconclusive: 8.2 µM [falling, partial curve] |
| Cc1ccsc1C1NC(=O)c2c(sc3c2CCCC3)N1 (configuration not stated) | inconclusive: 11.6 µM [activator, partial curve, poor fit] |
| CC(C)c1ccc(/C=C/C(=O)N2CCCCCC2)cc1 | inconclusive: 3.66 µM [falling, partial curve, poor fit] |
| COC(=O)c1ccccc1NC(=O)c1ccc(C#N)cc1 | inactive |
| O=C(CCn1cnc2onc(-c3ccc(F)cc3)c2c1=O)Nc1cccc(C(F)(F)F)c1 | inconclusive: 29.1 µM [falling, single point] |
| Cc1cc(C)c(C)c(S(=O)(=O)Nc2ccccc2C(=O)NCCCn2ccnc2)c1C | inactive |
| O=C(CN1C(=O)C2CCCCC2C1=O)OCC(=O)c1ccc(Cl)s1 (configuration not stated) | inactive |
| CCC(C)c1ccc(Nc2ncccc2C#N)cc1 (configuration not stated) | inconclusive: 13 µM [activator, partial curve] |
| COC(=O)/C=C/C(=O)Nc1cccnc1 | inconclusive: 16.4 µM [falling, partial curve, poor fit] |
| CCc1ccccc1NC(=O)Cn1c(=O)n(C(C)C)c(=O)c2oc3ccccc3c21 | inconclusive: 32.6 µM [activator, single point] |

| Structure (SMILES) | Potency |
| --- | --- |
| Cc1ccc(-c2csc(N3CCC(NS(=O)(=O)c4ccc5c(c4)OCCO5)CC3)n2)cc1 | active: 14.6 µM |
| COc1ccc(OCc2nc3ccccc3n2Cc2ccc(C(C)(C)C)cc2)cc1 | inconclusive: 2.91 µM [activator, full curve] |
| CC(C)(C)c1csc(NNC(=O)c2ccc(Cl)cc2)n1 | inconclusive: 13 µM [activator, partial curve] |
| O=C(NC(=S)Nc1ccccc1N1CCCCC1)c1ccc(F)cc1Cl | inconclusive: 32.6 µM [activator, single point] |
| CCOc1ccc2nc(NC(=O)c3ccco3)sc2c1 | inconclusive: 1.46 µM [activator, partial curve, poor fit] |
| CCn1c(/C=N/NC(=O)c2ccc(OC)cc2)nc2ccccc21 | inconclusive: 20.6 µM [falling, partial curve] |
| Cc1ccc(N2C(=O)c3ccccc3NC2c2ccccc2O)cc1 (configuration not stated) | inconclusive: 11.6 µM [activator, partial curve] |
| COc1ccc(/C=C2\SC(=O)NC2=S)cc1OC | inconclusive: 8.2 µM [falling, partial curve] |
| CN1CCOc2cc(S(=O)(=O)N3CCN(c4nc(-c5cccs5)nc5ccccc45)CC3)ccc21 | inactive |
| Cc1cccc(-n2c(C)cc(/C=N\NC(=O)c3cccs3)c2C)c1 | inconclusive: 8.2 µM [activator, partial curve] |
| O=C(Nc1ccccc1)c1sccc1Oc1ccc([N+](=O)[O-])cc1F | inconclusive: 32.6 µM [falling, single point] |
| N/C(=N\OC(=O)c1cccnc1)c1ccc(Cl)cc1Cl | inconclusive: 3.66 µM [activator, full curve, poor fit] |
| O=C(NCc1cccc(Br)c1)C1CCCCN1S(=O)(=O)c1ccc(F)cc1 (configuration not stated) | inactive |
| COc1ccc2cc(C(N)=O)c(=Nc3ccccc3)oc2c1 | inconclusive: 10.3 µM [activator, partial curve] |
| O=C(Nc1ccccc1)C(=O)c1c[nH]c2ccccc12 | inconclusive: 7.31 µM [activator, partial curve] |
| COc1ccc(CCNCc2ccc(OCc3ccccc3)cc2)cc1 | inconclusive: 2.31 µM [activator, full curve] |
| COc1ccc(Cl)cc1NC(=O)CN(C)C(=O)c1cc2c(F)cccc2s1 | inconclusive: 29.1 µM [falling, single point] |
| N/C(=N\OC(=O)COc1ccc(Br)cc1Cl)c1ccncc1 | inconclusive: 3.66 µM [activator, partial curve, poor fit] |
| C(=N\N1CCN(Cc2ccccc2)CC1)/c1cccs1 | inconclusive: 13 µM [activator, partial curve] |
| O=c1ccccn1CCOc1ccccc1Cl | inconclusive: 14.6 µM [activator, partial curve] |
| O=C(CSCc1c(F)cccc1F)Nc1ccccc1 | inconclusive: 14.6 µM [activator, partial curve, poor fit] |

Single values from the results shown:
`COc1ccc(/C=C2\SC(=O)NC2=S)cc1OC` – Potency: inconclusive: 8.2 µM [falling, partial curve]
`COc1ccc(CCNCc2ccc(OCc3ccccc3)cc2)cc1` – Potency: inconclusive: 2.31 µM [activator, full curve]
